These are yes or no findings as the source states them, for the method shown. Where a sequence is shown, tags or fusion partners need not be part of it.
Molecular target: T1, K2A1 (first of the two tandem repeats of the K2A region of knob associated histidine rich protein, KAHRP) (Plasmodium falciparum) (UniProt Q9TY99)
T1 sequence: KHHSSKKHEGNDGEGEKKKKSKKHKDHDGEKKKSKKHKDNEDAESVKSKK
Assay: NMR titration; controls: 2D [15N,1H] HSQC of 15N-labelled K2A1 titrated against bovine serum albumin or human α-synuclein at 1:0.5, 1:1, 1:2 and 1:5 molar ratios; both purified

Protein sequences, listed by entry. Tags and fused reporters are not part of them. Residues count along the entry.
UniProt P02769, residues 25-607: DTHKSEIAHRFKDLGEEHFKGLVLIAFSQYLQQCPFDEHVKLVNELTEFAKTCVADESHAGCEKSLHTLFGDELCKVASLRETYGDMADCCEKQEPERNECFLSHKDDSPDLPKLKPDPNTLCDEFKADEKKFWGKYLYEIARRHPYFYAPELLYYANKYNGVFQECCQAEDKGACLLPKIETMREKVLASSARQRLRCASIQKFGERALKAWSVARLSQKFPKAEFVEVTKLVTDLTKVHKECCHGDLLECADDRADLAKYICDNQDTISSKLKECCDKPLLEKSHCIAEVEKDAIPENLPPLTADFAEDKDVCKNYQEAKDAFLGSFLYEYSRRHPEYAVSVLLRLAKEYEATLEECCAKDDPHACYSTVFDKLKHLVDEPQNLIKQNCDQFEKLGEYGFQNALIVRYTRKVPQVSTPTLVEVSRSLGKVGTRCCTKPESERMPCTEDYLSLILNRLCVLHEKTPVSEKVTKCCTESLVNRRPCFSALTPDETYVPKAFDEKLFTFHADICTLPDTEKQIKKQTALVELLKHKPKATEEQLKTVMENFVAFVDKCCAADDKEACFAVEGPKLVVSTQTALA

## bovine serum albumin (from UniProt P02769 25-607)
  binding: no binding (tested: up to 1:5 molar ratio)
